Test results published in patent publication US20020164348A1 (priority 2000, published 2002).
No constants are given. Whether binding was seen depends on the method and setting. Some results given as binding are weak or reduced against the parent protein; the word gives no strength.

Amino acid sequences for entries named in this document (tags omitted). A change or cut given only in a name is not applied to a line headed by its entry. Residues count along the entry.
UniProt P03303, residues 1720-2179: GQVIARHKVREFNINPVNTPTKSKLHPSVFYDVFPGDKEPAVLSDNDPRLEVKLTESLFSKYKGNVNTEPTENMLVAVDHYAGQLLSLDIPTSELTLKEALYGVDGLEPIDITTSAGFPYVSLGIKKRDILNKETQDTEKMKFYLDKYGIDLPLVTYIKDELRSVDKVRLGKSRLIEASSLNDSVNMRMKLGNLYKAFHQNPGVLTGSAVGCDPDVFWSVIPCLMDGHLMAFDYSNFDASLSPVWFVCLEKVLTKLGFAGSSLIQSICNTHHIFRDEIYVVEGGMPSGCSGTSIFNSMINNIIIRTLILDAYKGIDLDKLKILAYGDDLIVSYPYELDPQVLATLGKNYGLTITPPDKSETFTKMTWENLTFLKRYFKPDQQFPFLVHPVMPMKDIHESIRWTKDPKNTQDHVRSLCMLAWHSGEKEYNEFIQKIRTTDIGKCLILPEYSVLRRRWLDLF
UniProt P03317, residues 1904-2513: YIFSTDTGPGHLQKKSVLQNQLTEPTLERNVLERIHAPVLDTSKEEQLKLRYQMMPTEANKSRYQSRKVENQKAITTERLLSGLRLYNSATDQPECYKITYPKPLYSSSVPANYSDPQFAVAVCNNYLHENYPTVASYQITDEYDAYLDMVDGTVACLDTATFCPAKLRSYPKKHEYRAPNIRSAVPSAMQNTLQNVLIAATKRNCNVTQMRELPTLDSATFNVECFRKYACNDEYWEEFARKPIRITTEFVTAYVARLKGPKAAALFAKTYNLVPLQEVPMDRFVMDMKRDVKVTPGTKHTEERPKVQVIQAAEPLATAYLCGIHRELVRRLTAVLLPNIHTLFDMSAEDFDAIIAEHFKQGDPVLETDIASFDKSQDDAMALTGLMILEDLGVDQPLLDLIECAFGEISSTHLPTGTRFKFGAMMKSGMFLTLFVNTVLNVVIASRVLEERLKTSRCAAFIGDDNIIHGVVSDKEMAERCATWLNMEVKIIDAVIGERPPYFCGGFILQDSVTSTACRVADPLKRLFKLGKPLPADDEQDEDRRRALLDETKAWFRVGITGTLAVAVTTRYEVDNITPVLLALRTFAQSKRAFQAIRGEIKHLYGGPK
UniProt P0A7C2: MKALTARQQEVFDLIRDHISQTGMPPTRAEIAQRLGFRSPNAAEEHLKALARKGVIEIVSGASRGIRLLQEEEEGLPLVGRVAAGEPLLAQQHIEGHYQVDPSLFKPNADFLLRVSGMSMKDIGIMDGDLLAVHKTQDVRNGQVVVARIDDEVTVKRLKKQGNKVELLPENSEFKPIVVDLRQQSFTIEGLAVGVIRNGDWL

Legend:
[1] = target: pJG-human rhinovirus 14 3D prey fusion (human rhinovirus 14) (UniProt P03303); test: yeast two-hybrid, blue colour on X-gal plates; bait in row, prey in column
[2] = target: pJG-Sindbis virus nsP4 prey fusion (Sindbis virus) (UniProt P03317); test: as above
[3] = target: pJG-human rhinovirus 14 3D prey fusion (human rhinovirus 14) (UniProt P03303); test: yeast two-hybrid
[4] = target: pJG-Sindbis virus nsP4 prey fusion (Sindbis virus) (UniProt P03317); test: yeast two-hybrid

Measured: binding

LexA-human rhinovirus 14 3D bait fusion (from UniProt P0A7C2 1-202; P03303 1720-2179)
binds: all assays above
